Reference: PubChem BioAssay AID540256 (National Center for Advancing Translational Sciences (NCATS), 2011)
In all, about 300,000 compounds went through this assay and about 3,700 (1.2%) were called active. The inconclusive results got no clear call from the source; some entries with a clear call stand among them for comparison. Calls follow the shape of the full dose curve; tested in HEK293 cells. Potencies beside an inconclusive call are fits to weak or partial responses and may not hold up.
% is scaled to controls: 0 for no effect and ±100 for the full control effect; potency is read from the fitted curve at half-maximal effect.

Assay: qHTS for Inhibitors of binding or entry into cells for Lassa Virus; also: nearly all actives have a fitted effect of over 50% in size
Conditions: Lassa virus pseudotype entry inhibition, cell reporter; activity change, negative = inhibition: at 37.9 µM (top of the series) unless noted
For CS(=O)(=O)Cc1cccc(C(=O)NC2CCSc3ccccc32)c1 (stereo not drawn), the Potency was inconclusive: 0.0065 µM [inhibitor, partial curve, poor fit]. With Cc1c(N=C2C=CC(=O)c3ccccc32)c(=O)n(-c2ccccc2)n1C the “activity change, negative = inhibition” value was inactive: -1.61%. With COc1cc(SC)ccc1C(=O)OC(C)C(=O)NC1CCCC1 (stereo not drawn) the Potency was inconclusive: 6.31 µM [inhibitor, single point]. For Cn1ncc(N2CCN(S(=O)(=O)c3ccc(Br)cc3)CC2)c(Cl)c1=O, the Potency was inconclusive: 10 µM [inhibitor, partial curve]. For COc1ccc(-c2ccc(C#N)c(OC(=O)c3c(Cl)cccc3Cl)n2)cc1, the Potency was inconclusive: 15.8 µM [inhibitor, single point]. In the case of Cc1cccc(/C=N/NC(=O)CN2CCCCCCC2)c1, the Potency is reported as inconclusive: 0.708 µM [activator, full curve, poor fit]. For OC(c1cccc(OCc2ccccc2)c1)c1nnc(-c2ccccc2)o1 (stereo not drawn), the Potency was inconclusive: 35.5 µM [inhibitor, single point]. In the case of Cc1cccc(CN2C(=O)c3ccccc3S(=O)(=O)c3ccc(C(=O)N(C)Cc4ccccc4)cc32)c1, the Potency is reported as inconclusive: 3.55 µM [inhibitor, partial curve, poor fit]. For CCOC(=O)c1c(C)[nH]c(C)c1C(=O)CSc1nc2ccccc2c(=O)n1-c1ccc(Cl)cc1, the Potency was inconclusive: 22.4 µM [inhibitor, single point]. With COCCCn1c(=O)/c(=C\c2ccccc2OC(F)F)s/c1=C(/C#N)C(=O)N1CCOCC1 the Potency was inconclusive: 15.8 µM [inhibitor, partial curve, poor fit]. With Cc1nc(Nc2ccccc2)sc1C(=O)c1ccc(F)cc1 the Potency was inconclusive: 25.1 µM [inhibitor, single point]. In the case of Cc1ccn2c(C(=O)NN=C3CCN(C)CC3)c(C)nc2c1, the Potency is reported as inconclusive: 6.31 µM [inhibitor, single point]. In the case of O=C(N/N=C/c1cccnc1)C12CC3CC(CC(C3)C1)C2, the “activity change, negative = inhibition” value is reported as inactive: 16.2% [at 46.1 µM]. With Cc1nc(-c2cccc(NC(=O)C(C)Oc3ccccc3)c2)cs1 (stereo not drawn) the Potency was active: 8.91 µM. With Cc1ccc(NC(=O)c2c(C)nc3sc(C(=O)Nc4ccc(F)cc4)c(N)c3c2-c2ccc(Cl)cc2)c(C)c1 the Potency was inconclusive: 3.98 µM [inhibitor, partial curve, poor fit]. For CCOC(=O)c1c(NC(=O)c2ccccc2C)sc2c1CC(C)(C)OC2, the Potency was inconclusive: 35.5 µM [inhibitor, single point]. For CCCCN(C(=O)c1cc(-c2ccc(F)cc2)nc2ccccc12)c1c(N)n(CCCC)c(=O)[nH]c1=O, the Potency was inconclusive: 11.2 µM [inhibitor, partial curve, poor fit]. With Cc1ccccc1C(=O)NCc1nc(-c2ccc(Cl)cc2)no1 the Potency was inconclusive: 31.6 µM [activator, single point]. For CCCCN(CC(=O)NC(C)(C)C)C(=O)C(=O)Nc1ccc2c(c1)OCCO2, the Potency was inconclusive: 14.1 µM [inhibitor, single point]. For COc1cccc(C2/C(=C(/O)c3ccccc3)C(=O)C(=O)N2Cc2ccco2)c1 (stereo not drawn), the Potency was inconclusive: 35.5 µM [activator, single point]. For CCNS(=O)(=O)c1ccc(C(=O)Nc2ccccc2)cc1, the “activity change, negative = inhibition” value was inactive: -4.15%. For O=C(N/N=C/c1ccc[nH]1)c1ccccc1[N+](=O)[O-], the Potency was inconclusive: 5.62 µM [activator, single point]. With Cc1nnc(-c2cccc(-c3ccc(C(=O)NCC4CC4)cc3)c2)o1 the Potency was inconclusive: 25 µM [inhibitor, single point]. In the case of Cc1ccc(N2CCN(S(=O)(=O)N3CCCCC3)CC2)c(C)c1, the Potency is reported as inconclusive: 11.2 µM [inhibitor, single point]. In the case of COc1ccc(C(=O)Nc2ccc(Cl)c(S(=O)(=O)Nc3ccccc3OC)c2)cc1, the Potency is reported as inconclusive: 15.8 µM [inhibitor, single point]. With O=C(CN1CCCCC1)Nc1cccc(Br)c1 the “activity change, negative = inhibition” value was inactive: -0.0342%. With COc1ccc(Cl)cc1NC(=O)CCn1c(=O)c2cccn2c2ccccc21 the Potency was inconclusive: 11.2 µM [inhibitor, partial curve, poor fit]. With CCOC(=O)C1=C(CCl)NC(=O)NC1c1ccc2c(c1)OCO2 (stereo not drawn) the Potency was inconclusive: 35.5 µM [inhibitor, single point]. In the case of COc1ccc2[nH]c(=O)c(CN(C(=O)NC3CCCCC3)C3CCCCC3)cc2c1, the “activity change, negative = inhibition” value is reported as inactive: 12.5%. In the case of O=C(Nc1ccc(-c2nc3ccccc3o2)cc1)c1cc(-n2cnnc2)ccc1Cl, the Potency is reported as inconclusive: 32.6 µM [inhibitor, single point]. In the case of COc1ccc(NC(=S)NC2CCN(Cc3ccccc3)CC2)cc1OC, the “activity change, negative = inhibition” value is reported as inactive: -6.53% [at 46.1 µM]. With CN(C)S(=O)(=O)c1cccc(COC(=O)c2cc([N+](=O)[O-])ccc2N2CCOCC2)c1 the Potency was inconclusive: 3.98 µM [inhibitor, partial curve, poor fit]. For O=C(NC(=S)NCCc1ccccc1)C1CCCCC1, the Potency was inconclusive: 28.2 µM [inhibitor, single point]. For O=C(CN1C(=O)NC2(CCCC2)C1=O)Nc1nc2c(F)cc(F)cc2s1, the “activity change, negative = inhibition” value was inactive: -10.9% [at 46.1 µM]. For O=C(C1CC(=O)N(c2ccc(F)cc2)C1)N1CCCCCC1 (stereo not drawn), the “activity change, negative = inhibition” value was inactive: 21.5% [at 46.1 µM]. In the case of Cc1cc(NC(=O)/C=C/c2cccc(Cl)c2)n(-c2nc3ccccc3[nH]2)n1, the Potency is reported as inconclusive: 1.58 µM [activator, full curve]. With CCN(CC(=O)NCCc1ccccc1)S(=O)(=O)c1ccc(Br)cc1 the Potency was inconclusive: 0.92 µM [inhibitor, full curve, poor fit]. In the case of COC(=O)CCC(=O)COc1ccc(OC)cc1C#N, the Potency is reported as inconclusive: 0.316 µM [activator, partial curve, poor fit]. For COCc1cc(=O)[nH]c(/N=C(\N)Nc2cccc(Cl)c2)n1, the Potency was inconclusive: 22.4 µM [inhibitor, single point]. With COc1cc(OC)c(NS(=O)(=O)c2cc3c(cc2C)N(C(C)=O)CCO3)cc1Cl the Potency was inconclusive: 2.82 µM [activator, full curve, poor fit]. With CCc1cc(C(=O)OC)c(NC(=O)CC2Sc3ccc(C(F)(F)F)cc3NC2=O)s1 (stereo not drawn) the Potency was inconclusive: 1.26 µM [inhibitor, single point]. In the case of Cc1ccc(NC2CC(=O)N(CCc3ccccc3)C2=O)cc1 (stereo not drawn), the Potency is reported as inconclusive: 7.3 µM [activator, partial curve, poor fit]. In the case of CN(C)C(=S)Nc1ccc(Br)c(Cl)c1, the “activity change, negative = inhibition” value is reported as inactive: 0.388%. For COc1ccc(OC)c(NC(=O)C2CCN(c3ncccn3)CC2)c1, the “activity change, negative = inhibition” value was inactive: -2.81%. For Cc1ccc(NC(=O)c2cc(-c3ccccc3)nn2-c2ccccc2)c(Br)c1, the Potency was inconclusive: 15.8 µM [inhibitor, single point]. For CC(=O)Oc1cccc(/C=C2\C=C(c3ccc(C)cc3)OC2=O)c1, the “activity change, negative = inhibition” value was inactive: -1.32%. In the case of c1ccc(-n2c(-c3cccs3)nc3nc4ccccc4nc32)cc1, the Potency is reported as inconclusive: 15.8 µM [activator, partial curve, poor fit]. In the case of CC(OC(=O)c1nn(C)c(=O)c2ccccc12)C(=O)NC1CCCCC1C (stereo not drawn), the Potency is reported as inconclusive: 14.1 µM [activator, single point]. In the case of Cc1ccc2nc3c(c(Nc4ccc(C)c(C)c4)c2c1)CCC3, the Potency is reported as inconclusive: 11.2 µM [inhibitor, partial curve, poor fit]. For COc1cc(OC)c(N(C)S(=O)(=O)c2cccc(C(=O)OCc3c(C)noc3C)c2)cc1Cl, the Potency was inconclusive: 5.62 µM [inhibitor, partial curve]. For CCCN1CCC(=NNc2ccc(S(=O)(=O)N3CCOCC3)cc2[N+](=O)[O-])CC1, the Potency was inconclusive: 20.6 µM [inhibitor, single point]. In the case of O=C(NCc1cccs1)C1CCCN1C(=O)Nc1cccc(F)c1 (stereo not drawn), the Potency is reported as inconclusive: 1.41 µM [inhibitor, partial curve, poor fit]. With CC1(C)Cc2ccccc2C(N/N=C/c2cccc(F)c2)=N1 the Potency was inconclusive: 9.2 µM [inhibitor, partial curve]. With Fc1ccccc1Nc1nc(-c2ccncc2)nc2ccccc12 the Potency was inconclusive: 14.1 µM [inhibitor, single point]. For CCOCCc1nn2c(=O)cc(COC(=O)c3ccccc3NC(=O)c3ccc(C)cc3)nc2s1, the Potency was inconclusive: 6.31 µM [activator, partial curve, poor fit]. In the case of Cc1ccc(NC(=O)CSc2nc(N)c3cc4c(nc3n2)CCCC4)cc1, the Potency is reported as inconclusive: 2.06 µM [inhibitor, partial curve, poor fit]. With Cc1ccc(C(=O)Nc2cccc(C(=O)N/N=C/c3ccc(O)cc3)c2)cc1 the Potency was inconclusive: 35.5 µM [inhibitor, single point]. In the case of OC(COCC1COc2ccccc2O1)CN1CCN(c2ccccc2F)CC1 (stereo not drawn), the “activity change, negative = inhibition” value is reported as inactive: 6.02%. For CCn1cc2nc(SCC(=O)Nc3ccc(OC)cc3OC)n(Cc3ccc(Cl)cc3)c(=O)c2n1, the Potency was inconclusive: 35.5 µM [inhibitor, single point]. In the case of COc1cc(NC(=O)COc2ccccc2[N+](=O)[O-])ccc1NC(=O)c1cccs1, the Potency is reported as inconclusive: 35.5 µM [inhibitor, single point]. For CN(C)c1ccc(NC(=O)Cn2cc(S(=O)(=O)Cc3ccccc3Cl)c3ccccc32)cc1, the Potency was inconclusive: 35.5 µM [inhibitor, partial curve, poor fit]. With c1ccc(-c2nc3ccccc3c3nncn23)cc1 the Potency was inconclusive: 1.26 µM [inhibitor, single point]. In the case of Cc1ccc(C(=O)NC(=O)OCCn2c(C)cnc2[N+](=O)[O-])cc1, the “activity change, negative = inhibition” value is reported as inactive: -2.19%.
